Source: publication PMC11798735

By UniProt entry, the sequences of proteins in these tests, tags left out. Where a name states a change or a piece, a line headed by the entry shows the natural chain unless it says otherwise.
UniProt P08151: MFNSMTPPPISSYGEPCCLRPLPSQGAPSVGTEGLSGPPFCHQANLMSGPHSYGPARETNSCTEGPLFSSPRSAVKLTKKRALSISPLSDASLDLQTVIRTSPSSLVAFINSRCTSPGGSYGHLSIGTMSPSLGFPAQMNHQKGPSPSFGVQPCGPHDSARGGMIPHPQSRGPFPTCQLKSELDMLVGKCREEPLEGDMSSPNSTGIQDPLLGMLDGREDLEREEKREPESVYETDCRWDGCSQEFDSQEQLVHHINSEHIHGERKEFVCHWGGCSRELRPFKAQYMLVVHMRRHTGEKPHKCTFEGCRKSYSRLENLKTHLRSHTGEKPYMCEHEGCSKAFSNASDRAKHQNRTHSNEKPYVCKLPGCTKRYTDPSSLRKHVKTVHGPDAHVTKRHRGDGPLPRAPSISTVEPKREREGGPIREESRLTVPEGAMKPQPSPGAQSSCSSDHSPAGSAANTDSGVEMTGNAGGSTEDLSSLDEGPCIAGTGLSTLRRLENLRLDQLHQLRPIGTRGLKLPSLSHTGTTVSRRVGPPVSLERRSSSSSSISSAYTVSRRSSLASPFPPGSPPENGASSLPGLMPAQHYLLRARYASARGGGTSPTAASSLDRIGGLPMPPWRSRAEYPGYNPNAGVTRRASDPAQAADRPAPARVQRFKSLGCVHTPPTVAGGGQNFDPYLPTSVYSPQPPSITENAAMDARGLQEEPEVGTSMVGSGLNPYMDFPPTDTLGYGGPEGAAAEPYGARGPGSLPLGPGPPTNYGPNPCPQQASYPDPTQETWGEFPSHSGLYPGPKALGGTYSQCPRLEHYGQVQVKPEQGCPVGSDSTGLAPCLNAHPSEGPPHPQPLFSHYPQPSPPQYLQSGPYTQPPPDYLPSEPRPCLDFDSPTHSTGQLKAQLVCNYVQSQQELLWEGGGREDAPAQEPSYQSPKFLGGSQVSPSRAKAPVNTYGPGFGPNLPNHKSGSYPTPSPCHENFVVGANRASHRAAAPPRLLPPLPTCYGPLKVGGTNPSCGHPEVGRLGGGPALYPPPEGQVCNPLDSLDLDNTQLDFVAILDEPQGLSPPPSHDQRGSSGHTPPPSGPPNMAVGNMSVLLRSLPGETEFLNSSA
UniProt P12643: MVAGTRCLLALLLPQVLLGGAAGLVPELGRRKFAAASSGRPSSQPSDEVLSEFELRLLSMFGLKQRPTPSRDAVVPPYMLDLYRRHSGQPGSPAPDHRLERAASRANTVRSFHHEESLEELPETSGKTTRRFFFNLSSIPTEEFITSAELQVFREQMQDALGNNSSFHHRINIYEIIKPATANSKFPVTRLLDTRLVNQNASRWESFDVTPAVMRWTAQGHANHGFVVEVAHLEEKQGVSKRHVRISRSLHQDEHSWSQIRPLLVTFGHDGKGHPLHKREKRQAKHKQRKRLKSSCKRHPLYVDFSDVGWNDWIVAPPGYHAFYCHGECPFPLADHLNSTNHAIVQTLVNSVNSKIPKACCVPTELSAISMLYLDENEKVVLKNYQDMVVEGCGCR
UniProt P12644: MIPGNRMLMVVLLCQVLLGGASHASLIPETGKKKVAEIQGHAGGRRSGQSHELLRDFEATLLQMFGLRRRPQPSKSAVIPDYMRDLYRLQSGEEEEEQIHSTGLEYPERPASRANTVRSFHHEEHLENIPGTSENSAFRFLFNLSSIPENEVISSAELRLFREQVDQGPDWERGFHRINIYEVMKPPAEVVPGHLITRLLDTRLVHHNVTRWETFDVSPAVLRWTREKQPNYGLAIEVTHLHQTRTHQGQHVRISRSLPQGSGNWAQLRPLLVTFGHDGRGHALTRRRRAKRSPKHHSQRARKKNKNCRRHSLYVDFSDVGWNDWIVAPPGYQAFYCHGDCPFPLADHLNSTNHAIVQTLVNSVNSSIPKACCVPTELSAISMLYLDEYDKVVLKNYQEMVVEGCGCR

Molecular target: GLI Family Zinc Finger 1 (GLI1) (human (endogenous in primary PLL or OPLL cells; the cells of the co-IP are not named)) (UniProt P08151)
Experiment: co-IP; Immunoprecipitation Kit (Beyotime); cell lysate in CoIP lysis buffer with protease inhibitor cocktail, primary antibodies overnight at 4 °C, Protein A + G magnetic beads 3 h, three washes, Western blot

Substance | binding
BMP2 (from UniProt P12643) | binds
BMP4 (from UniProt P12644) | no binding

No constants are given. Whether binding was seen depends on the method and setting. Binding seen in cells or lysates may run through a third protein. A result given as binding can be weak or reduced; the word gives no strength.
